Earlier results as cited in patent publication US20140328949A1, “ELECTROCHEMICALLY GENERATED ANTIMICROBIAL SODIUM HYDROXIDE SOLUTION” (priority 2013, published 2014).
At least one compound was matched to its structure with a doubt left.

Tested on: hairy foot warts
Conditions: footbaths; formalin 5%; zinc sulfate 3× footbaths, spread and mild lesions

| SMILES | efficacy of footbath treatment against hairy foot warts |
| --- | --- |
| CN(C)[C@@H]1C(O)=C(C(N)=O)C(=O)[C@@]2(O)C(O)=C3C(=O)c4c(O)cccc4[C@@](C)(O)[C@H]3[C@H](O)[C@@H]12 [oxytetracycline] | shown the efficacy |
| CN(C)[C@@H]1C(O)=C(C(N)=O)C(=O)[C@@]2(O)C(O)=C3C(=O)c4c(O)cccc4[C@@](C)(O)[C@H]3C[C@@H]12 [tetracycline] | shown the efficacy |
